This is an account of results in patent US6365722.

Assay [1] has as its target bait vector harboring the IKKα Helix-Loop-Helix domain. As to the kind of experiment: yeast two-hybrid, colony growth.
The target in assay [2] is analogous IKKβ bait. As to the kind of experiment: yeast two-hybrid, colony growth.
The target of assay [3] is bait vector harboring the IKKα Leucine Zipper domain. As to the kind of experiment: yeast two-hybrid, colony growth.
In assay [4] the target is analogous IKKβ bait. Kind of assay: yeast two-hybrid.

These are yes or no findings as the source states them, for the method shown. For some of these results: A result given as binding can be weak or reduced; the word gives no strength.

B1: Y2h clone 11, RanBP5 (protein, human, UniProt O00410 2-1097, looked up)
chain: AAAAAEQQQFYLLLGNLLSPDNVVRKQAEETYENIPGQSKITFLLQAIRNTTAAEEARQMAAVLLRRLLSSAFDEVYPALPSDVQTAIKSELLMIIQMETQSSMRKKVCDIAAELARNLIDEDGNNQWPEGLKFLFDSVSSQNVGLREAALHIFWNFPGIFGNQQQHYLDVIKRMLVQCMQDQEHPSIRTLSARATAAFILANEHNVALFKHFADLLPGFLQAVNDSCYQNDDSVLKSLVEIADTVPKYLRPHLEATLQLSLKLCGDTSLNNMQRQLALEVIVTLSETAAAMLRKHTNIVAQTIPQMLAMMVDLEEDEDWANADELEDDDFDSNAVAGESALDRMACGLGGKLVLPMIKEHIMQMLQNPDWKYRHAGLMALSAIGEGCHQQMEGILNEIVNFVLLFLQDPHPRVRYAACNAVGQMATDFAPGFQKKFHEKVIAALLQTMEDQGNQRVQAHAAAALINFTEDCPKSLLIPYLDNLVKHLHSIMVLKLQELIQKGTKLVLEQVVTSIASVADTAEEKFVPYYDLFMPSLKHIVENAVQKELRLLRGKTIECISLIGLAVGKEKFMQDASDVMQLLLKTQTDFNDMEDDDPQISYMISAWARMCKILGKEFQQYLPVVMGPLMKTASIKPEVALLDTQDMENMSDDDGWEFVNLGDQQSFGIKTAGLEEKSTACQMLVCYAKELKEGFVEYTEQVVKLMVPLLKFYFHDGVRVAAAESMPLLLECARVRGPEYLTQMWHFMCDALIKAIGTEPDSDVLSEIMHSFAKCIEVMGDGCLNNEHFEELGGILKAKLEEHFKNQELRQVKRQDEDYDEQVEESLQDEDDNDVYILTKVSDILHSIFSSYKEKVLPWFEQLLPLIVNLICPHRPWPDRQWGLCIFDDVIEHCSPASFKYAEYFLRPMLQYVCDNSPEVRQAAAYGLGVMAQYGGDNYRPFCTEALPLLVRVIQSADSKTKENVNATENCISAVGKIMKFKPDCVNVEEVLPHWLSWLPLHEDKEEAVQTFNYLCDLIESNHPIVLGPNNTNLPKIFSIIAEGEMHEAIKHEDPCAKRLANVVRQVQTSGGLWTECIAQLSPEQQAAIQELLNSA
In the case of B1, the binding result is reported as “no binding” in assay [1], “binds” with analogous IKKβ bait [2] and “no binding” in assay [3].

B2: Y2h clone 21, TRIP9/HuIκBβ2 (protein, human, UniProt Q15653-2 1-338, looked up)
chain: MAGVACLGKAADADEWCDSGLGSLGPDAAAPGGPGLGAELGPGLSWAPLVFGYVTEDGDTALHLAVIHQHEPFLDFLLGFSAGTEYMDLQNDLGQTALHLAAILGETSTVEKLYAAGAGLCVAERRGHTALHLACRVGAHACARALLQPRPRRPREAPDTYLAQGPDRTPDTNHTPVALYPDSDLEKEEEESEEDWKLQLEAENYEGHTPLHVAVIHKDVEMVRLLRDAGADLDKPEPTCGRSPLHLAVEAQAADVLELLLRAGANPAARMYGGRTPLGSAMLRPNPILARLLRAHGAPEPEGEDEKSGPCSSSSDSDSGDEGVSQEERQGSPAGGSG
B2: the binding result in assay [1] was “no binding”; with analogous IKKβ bait [2], “binds”; in assay [3] it was “no binding”.

B3: Y2H14, IKK binding protein (protein)
chain: CGLPLKEGALRPSYDRKSDRPVYEGPSMFGGERRTYPEERMPLPAPSLSHQPPPAPRVEKKPESKNVDDILKPPGRESRPERIVVIMRGLPGSGKTHVAKLIRDKEVEFGGPAPRVLSLDDYFITEVEKEEKDPDSGKKVKKKVREYEYEAEMEETYRTSMFKTFKKTLDDGFFPFIILDAINDRVRHFDQFWSAAKTKGFEVYLAEMSADNQTCGKRNIHGRKLKEINKMADHWETAPRHMMRLDIRSLLQDAAIEEVEMEDFDANIEEQKEEKKDAEEEESELGYIPKSKWEMDTSEAKLDKLDGLRTGTKRKRDWEAIASRMEDYLQLPDDYDTRASEPGKKRVRWADLEEKKDADRKRAIGFVVGQTDWEKITDESGHLAEKALNRTKYI
Turning to B3, the binding result is on record as “no binding” in assay [1], “binds” with analogous IKKβ bait [2], “no binding” in assay [3] and “binds” with analogous IKKβ bait [4].
